Construct, isoform or probe ends are uncertain for at least one entry. Results from cells or extracts need not show a direct contact. For some of these results: No signal at the amounts used counts as a negative.
Experiments:
[1] = target: MYOD1 (myogenic differentiation 1) (UniProt Q7YS82); assay: EMSA supershift; conditions: anti-MYOD1, poly(dI-dC), unlabeled probe abolishes complex, EMSA: 10 ug nuclear extract, 5x binding buffer (composition and pH not given), 20 uL, 15 min on ice, then 200 fmol biotin probe 20 min at room temperature, protein in an extract, label: 5' biotin (unlabeled as competitor)
[2] = target: CREB1 (cAMP response element binding protein 1) (UniProt P27925); assay: EMSA supershift; conditions: anti-CREB1, poly(dI-dC), unlabeled probe abolishes complex, EMSA: 10 ug nuclear extract, 5x binding buffer (composition and pH not given), 20 uL, 15 min on ice, then 200 fmol biotin probe 20 min at room temperature, protein in an extract, label: 5' biotin (unlabeled as competitor)
[3] = target: MYOD1 (myogenic differentiation 1) (UniProt Q7YS82); assay: competition with a labelled probe; conditions: mutant competitor against labeled N1, complex minimally affected; EMSA: 10 ug nuclear extract, 5x binding buffer (composition and pH not given), poly(dI-dC), 20 uL, 15 min on ice, then 200 fmol biotin probe 20 min at room temperature; protein in an extract
[4] = target: CREB1 (cAMP response element binding protein 1) (UniProt P27925); assay: competition with a labelled probe; conditions: mutant competitor against labeled N3, complex minimally affected; EMSA: 10 ug nuclear extract, 5x binding buffer (composition and pH not given), poly(dI-dC), 20 uL, 15 min on ice, then 200 fmol biotin probe 20 min at room temperature; protein in an extract

By UniProt entry, the sequences of proteins in these tests, tags left out. Where a name states a change or a piece, a line headed by the entry shows the natural chain unless it says otherwise.
UniProt Q7YS82: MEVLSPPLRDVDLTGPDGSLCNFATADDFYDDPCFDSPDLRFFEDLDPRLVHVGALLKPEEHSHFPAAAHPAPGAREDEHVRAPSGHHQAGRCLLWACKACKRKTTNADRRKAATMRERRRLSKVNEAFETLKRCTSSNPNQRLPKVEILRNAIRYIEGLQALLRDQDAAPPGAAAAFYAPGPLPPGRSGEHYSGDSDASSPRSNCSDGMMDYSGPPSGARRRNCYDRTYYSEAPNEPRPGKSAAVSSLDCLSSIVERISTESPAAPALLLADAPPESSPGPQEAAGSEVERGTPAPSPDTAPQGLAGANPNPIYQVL
UniProt P27925: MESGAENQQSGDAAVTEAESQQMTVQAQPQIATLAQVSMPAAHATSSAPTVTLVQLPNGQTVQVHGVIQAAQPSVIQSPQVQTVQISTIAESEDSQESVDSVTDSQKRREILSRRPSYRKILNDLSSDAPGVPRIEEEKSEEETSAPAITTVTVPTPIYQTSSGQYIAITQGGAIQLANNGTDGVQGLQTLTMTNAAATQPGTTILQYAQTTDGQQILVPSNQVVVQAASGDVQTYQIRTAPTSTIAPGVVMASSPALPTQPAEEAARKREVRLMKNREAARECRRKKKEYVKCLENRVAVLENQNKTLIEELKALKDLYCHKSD

AAGACCCGATTAGGCCTAGGCGGTGGTCGTCGGCTCCAATAGTCGAATC / GATTCGACTATTGGAGCCGAGCGGTGGTCGCTAGGCCTAATCGGGTCTT [MYOD1 probe (NCAPG promoter)]
binding result [1]: binds

ATGTTGAAGGCGGTGGATTCAAGAGAAGGTCACTCGCCGCTCTACGCACTCGC / GCGAGTGCGTAGAGCGGCGAGAGAGAAGGTCATGAATCCACCGCCTTCAACAT [CREB1 probe (NCAPG promoter)]
binding result [2]: binds

CCAGCCGCAAGACCCGATTAGGCCTAGGCGGTGGTCGTCGGCTCCAATAGTCGAATCTC (double strand) [mMYOD1 mutant probe (NCAPG promoter)]
binding result [3]: no binding

CGATGTTGAAGGCGGTGGATTCATGAGAAGGTCGACTCGCCGCTCTACGCACTCGCGGT (double strand) [mCREB1 mutant probe (NCAPG promoter)]
binding result [4]: no binding

Source: PMC10931257
